This data set has as its target T1, ΔN-Dhr1-WT (Saccharomyces cerevisiae) (UniProt Q04217).
T1 sequence (looked up, limits assumed): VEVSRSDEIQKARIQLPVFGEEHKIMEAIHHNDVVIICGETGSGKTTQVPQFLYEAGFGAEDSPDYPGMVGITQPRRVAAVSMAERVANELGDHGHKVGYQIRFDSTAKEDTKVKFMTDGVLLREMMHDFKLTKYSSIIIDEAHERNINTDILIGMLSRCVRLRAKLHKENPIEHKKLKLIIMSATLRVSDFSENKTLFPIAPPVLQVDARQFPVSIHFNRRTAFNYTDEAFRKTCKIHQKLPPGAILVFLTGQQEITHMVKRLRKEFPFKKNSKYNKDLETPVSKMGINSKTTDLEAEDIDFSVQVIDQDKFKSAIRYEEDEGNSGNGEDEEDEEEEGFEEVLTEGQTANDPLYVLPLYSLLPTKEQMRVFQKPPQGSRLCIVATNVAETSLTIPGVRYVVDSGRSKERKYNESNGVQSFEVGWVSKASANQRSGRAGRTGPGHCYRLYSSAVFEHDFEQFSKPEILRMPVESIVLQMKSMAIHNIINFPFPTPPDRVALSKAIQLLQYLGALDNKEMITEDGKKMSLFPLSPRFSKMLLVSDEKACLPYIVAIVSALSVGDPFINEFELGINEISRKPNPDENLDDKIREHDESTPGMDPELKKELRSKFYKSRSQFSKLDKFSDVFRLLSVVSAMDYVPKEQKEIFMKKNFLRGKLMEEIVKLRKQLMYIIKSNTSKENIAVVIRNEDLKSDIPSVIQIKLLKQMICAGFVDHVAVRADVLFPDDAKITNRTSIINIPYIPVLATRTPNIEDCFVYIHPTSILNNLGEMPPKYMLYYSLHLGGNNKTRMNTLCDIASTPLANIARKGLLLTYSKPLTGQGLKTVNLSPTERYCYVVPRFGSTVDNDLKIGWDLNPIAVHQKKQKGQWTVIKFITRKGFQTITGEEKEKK
Put plainly: fluorescence polarization. Particulars: 10 mM Mg2+, no significant change vs no nucleotide, 40 mM Tris-HCl pH 8.0, 40 mM KCl, 150 mM NaCl, 2 mM NaOAc, 2 mM DTT, 10 mM MgCl2, 4% glycerol, 0.05% Tween 20, 25 °C, 10 min, 1.25 nM RNA, 0.625 nM-20 µM protein, recombinant protein, protein details: C-terminal His6 (pET21a), label: 5' 6-FAM.

Construct, isoform or probe ends are uncertain for at least one entry. At least one verdict rests on a figure or table, not on a statement of the authors. Where a protein sequence is shown, tags need not be part of it.

These results are taken from PMC11994318, “In vitro characterization of the yeast DEAH/RHA RNA helicase Dhr1” (The Journal of Biological Chemistry, 2025).

For the sequence UUUUUUUUUUUUUUUUUUUU [U20], the binding result runs as follows: (1 mM ADP) “binds”; (1 mM AMPPNP) “binds”.
